Reference: PubChem BioAssay AID493014 (National Center for Advancing Translational Sciences (NCATS), 2011)
Some of the results follow. Further columns of the screen follow, without active or inactive calls. Compounds called inactive in the main read-out are mostly missing here. The note in brackets gives the kind of curve behind each potency; many fits are weak.

Assay: qHTS Assay to Find Inhibitors of Chronic Active B-Cell Receptor Signaling
Settings: ABC-DLBCL IkBa-CBG/CBR reporter, luminescence ratio (green luciferase fused to IkBa over red control in TMD8 lymphoma cells), 4 h
Summary of the method: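 Compounds up to 46 uM were incubated four hours with TMD8 cells whose green CBG68 luciferase is fused to IkappaBalpha; red CBR luminescence normalised the signal, and concentration-effect curves were fitted to fusion, red and ratio data.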

[1] = measured here: CBR red luminescence, cell number
[2] = measured here: IkBa-CBG green luminescence

COc1cc(/C=C(\C#N)c2nc3ccccc3c(=O)[nH]2)cc(OC)c1OC
AC50 [1]: 17.8 µM [falling, single point]

Cc1c(C(=O)N2CC3(CC(c4cccc(NC(=O)CC(c5ccccc5)c5ccccc5)c4)=NO3)C[C@@H]2C(N)=O)cc([N+](=O)[O-])cc1[N+](=O)[O-] (some centres not stated)
AC50 [1]: 0.631 µM [falling, partial curve, poor fit]

Cc1ccc(C(C)C)c(OCCCN2C(=O)NC(C)(C)C2=O)c1
AC50 [1]: 6.51 µM [rising, single point]

CNC(=O)c1cccnc1Nc1cccc(C(F)(F)F)c1
AC50 [1]: 1.16 µM [rising, full curve]

COc1ccc(-c2[nH]c(-c3cc(OC)c4c(c3)OCO4)nc2-c2ccccc2)cc1
AC50 [1]: 0.651 µM [falling, full curve, poor fit]

Clc1ccc(-c2c[n+](Cc3cccc(Cl)c3)c3n2CCC3)cc1
AC50 [1]: 16.4 µM [falling, partial curve, poor fit]

COc1cccc(/C=C/C(=O)Nc2ccc(C(=O)Nc3cccc(S(N)(=O)=O)c3)cc2)c1OC
AC50 [1]: 0.794 µM [falling, full curve, poor fit]

CCC(=O)Nc1nc2nc(-c3ccccc3)cc(=O)n2[nH]1
AC50 [1]: 22.4 µM [falling, single point]

Cc1c(C(=O)NCC2COc3ccccc3O2)oc2ccc(S(=O)(=O)N3CC(C)CC(C)C3)cc12 (configuration not stated)
AC50 [1]: 9.2 µM [rising, partial curve, poor fit]

O=C(N/N=C/c1cccc(O)c1)N/N=C/c1cccc(O)c1
AC50 [1]: 11.2 µM [falling, partial curve, poor fit]

O=C(COC(=O)c1ccc(S(=O)(=O)NCc2ccco2)cc1)NC1CCCCC1
AC50 [1]: 16.4 µM [rising, partial curve, poor fit]

Oc1ccc(Nc2ccnc3cc(Cl)ccc23)cc1
AC50 [1]: 35.5 µM [falling, single point]

O=C(CSc1ccccc1)N1CCN(c2ccccn2)CC1
AC50 [1]: 12.6 µM [falling, single point]

O=C(N/N=C/c1cc2c(cc1Br)OCO2)c1cc2ccccc2o1
AC50 [1]: 0.631 µM [rising, full curve]

CCC(=O)Nc1nonc1-c1nc2ccccc2n1Cc1cccc2ccccc12
AC50 [1]: 4.11 µM [rising, full curve] | AC50 [2]: 4.11 µM [falling, full curve]

CN(Cc1ccccc1)C(=O)CN1C(=O)COc2ccc(S(=O)(=O)N3CCCC3)cc21
AC50 [1]: 25.1 µM [falling, single point]

COc1cc2ccccc2cc1C(=O)NC(=S)Nc1cccc(C(=O)O)c1
AC50 [1]: 12.6 µM [falling, single point]

O=C(Nc1ccnc(=O)[nH]1)c1sc2ccccc2c1Cl
AC50 [1]: 3.55 µM [rising, single point]

O=c1cc(CCl)[nH]c2nc3ccccc3n12
AC50 [1]: 14.1 µM [falling, partial curve]

CC(=O)[C@H]1CC[C@H]2[C@@H]3C[C@H](C)C4=CC(=O)CC[C@]4(C)[C@H]3[C@@H](O)C[C@]12C
AC50 [1]: 20.6 µM [rising, partial curve, poor fit] | AC50 [2]: 5.17 µM [falling, full curve]

CCN(C(=O)COC(=O)c1cc(-c2ccc3cc(OC)ccc3c2)nc2ccccc12)C1CCS(=O)(=O)C1 (configuration not stated)
AC50 [1]: 0.651 µM [falling, full curve, poor fit]

Cc1cccc(N(Cc2ccccc2)C(=O)c2cc(S(=O)(=O)N3CCOCC3)ccc2Cl)c1
AC50 [1]: 20.6 µM [falling, single point]

O=C1c2cccnc2C(Nc2ccc(Br)cc2)N1Cc1cccs1 (configuration not stated)
AC50 [1]: 3.16 µM [rising, partial curve]

COC(=O)c1sccc1NC(=O)Nc1ccc(F)cc1
AC50 [1]: 11.2 µM [falling, partial curve, poor fit]

CC(C)OCCCN1CN(S(=O)(=O)c2cccc(Cl)c2)c2nc3ccccc3nc21
AC50 [1]: 35.5 µM [falling, single point]

COc1cc(NC2CCCCC2O)c2nc(-c3ccc(Cl)cc3)ccc2c1 (configuration not stated)
AC50 [1]: 8.91 µM [rising, partial curve, poor fit]

Cc1ccc(C(=O)NCc2ccc3c(c2)OCO3)c(C)c1
AC50 [1]: 15.8 µM [rising, partial curve, poor fit]

COc1ccc(/C=C/C(=O)C2(O)CCCCC2)cc1
AC50 [1]: 14.1 µM [falling, single point]

COc1ccccc1C(=O)NNC(=O)c1ccccc1Br
AC50 [1]: 8.91 µM [falling, partial curve]

CN(C(=O)c1ccc(COc2ccccc2Cl)o1)c1ccccc1
AC50 [1]: 11.2 µM [falling, partial curve]

Cc1ccc(-n2c(N)c(C(=O)Nc3ccccc3F)sc2=S)cc1C
AC50 [1]: 22.4 µM [falling, partial curve, poor fit]

COC(=O)c1c(NC(=O)c2nn(C)cc2Cl)sc2c1CCCC2
AC50 [1]: 32.6 µM [falling, single point]

Cn1cnc([N+](=O)[O-])c1Sc1ncn[nH]1
AC50 [1]: 0.891 µM [rising, partial curve, poor fit]

N=c1oc2cc(O)ccc2cc1C(=O)Nc1ccccn1
AC50 [1]: 12.6 µM [falling, single point]

Cc1cc2nnc(SC(C)C)n2c2ccccc12
AC50 [1]: 3.66 µM [rising, partial curve, poor fit] | AC50 [2]: 23.1 µM [falling, single point]

CN(C(=O)COC(=O)c1ccc2c(c1)OCO2)C1CCS(=O)(=O)C1 (configuration not stated)
AC50 [1]: 25.1 µM [falling, single point]

COc1cccc(C(=O)c2c[nH]c(C(=O)NCc3cccnc3)c2)c1
AC50 [1]: 11.2 µM [falling, partial curve]

Cc1cc([N+](=O)[O-])ccc1NC1CCCC1
AC50 [1]: 29.1 µM [rising, partial curve, poor fit]

Cc1cc2cc(CN(CCN(C)C)C(=S)NCc3ccco3)c(=O)[nH]c2cc1C
AC50 [1]: 14.1 µM [falling, single point]
